Test results: article PMC4114980
Results are given in words; binding and its absence hold for the method and conditions named. For some assays here: A result given as binding can be weak or reduced; the word gives no strength. Where a sequence is shown, tags or fusion partners need not be part of it.

Key:
[1] = molecular target: T1, Chro-M2 (389–531), GST-fusion protein (Drosophila) (UniProt Q86BS3); experiment: pull-down; GST fusion proteins or GST on glutathione agarose beads, incubated with purified bovine tubulin in ip buffer with 20 µM taxol and 2 mM GTP (microtubules) overnight at 4°C; blot with tubulin antibody; both purified
T1 sequence: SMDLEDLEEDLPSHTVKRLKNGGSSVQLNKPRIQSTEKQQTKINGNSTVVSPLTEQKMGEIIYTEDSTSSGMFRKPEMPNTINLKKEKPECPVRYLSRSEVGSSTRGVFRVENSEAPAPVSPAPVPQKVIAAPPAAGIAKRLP

[2] = molecular target: T2, Chro-M3 (461–600), GST-fusion protein (Drosophila) (UniProt Q86BS3); experiment: as above
T2 sequence: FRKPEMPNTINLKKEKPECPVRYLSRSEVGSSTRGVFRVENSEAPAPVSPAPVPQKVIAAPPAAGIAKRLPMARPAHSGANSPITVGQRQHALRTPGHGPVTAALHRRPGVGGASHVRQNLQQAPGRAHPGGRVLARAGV

Substance: purified bovine brain tubulin (complex)
- binding [1]: no binding
- binding [2]: binds
